## Percent effect of library compounds

Sequences of proteins named here, by UniProt entry; tags and fusion partners are left off.
UniProt P9WFT3, whole entry: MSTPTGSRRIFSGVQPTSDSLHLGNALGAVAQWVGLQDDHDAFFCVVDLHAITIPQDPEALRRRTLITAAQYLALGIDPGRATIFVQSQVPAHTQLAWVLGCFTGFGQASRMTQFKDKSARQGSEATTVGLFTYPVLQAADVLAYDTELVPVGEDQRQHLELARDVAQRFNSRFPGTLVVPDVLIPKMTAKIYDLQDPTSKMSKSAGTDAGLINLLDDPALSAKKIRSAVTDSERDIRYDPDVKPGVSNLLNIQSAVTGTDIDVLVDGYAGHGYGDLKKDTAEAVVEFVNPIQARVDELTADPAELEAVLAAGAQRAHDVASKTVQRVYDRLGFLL

The filed quantity is “Percent Effect” (%). The record does not define 0% and 100%; most values in the screen are far below 50% and negative numbers occur (in some assays of this library far below -100). This is an unselected part of the compounds tested.

MtTrpRS: 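Tryptophan-tRNA ligase, Mycobacterium tuberculosis (UniProt P9WFT3). Enzyme assay of tryptophanyl-tRNA synthetase; the read-out is not stated. Tested at 10 µM. Higher most likely means stronger inhibition; the record gives no direction and few retests gave an IC50. About 65,000 compounds were tested under these conditions; 0.098% (about 64) showed 50% or more at least once.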
Leishmania in macrophages: 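Cell assay of Leishmania donovani living inside macrophages; the read-out is not stated. Compounds at 30 µM. Higher reads as stronger inhibition (inferred: compounds with an IC50 in retests scored well above the rest). About 69,000 compounds were tested under these conditions; 1.5% (about 1,000) showed 50% or more at least once.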

{"structure": "CS(=O)(=O)CCn1ccc(NC(=O)Cc2c[nH]c3ccccc23)n1", "MtTrpRS": 8.495, "Leishmania in macrophages": 18.76}
{"structure": "CN(C)CCNC(=O)c1cc2c(s1)CCN2S(C)(=O)=O", "MtTrpRS": -7.713, "Leishmania in macrophages": 16.29}
{"structure": "Cc1nn(C(C)(C)C)c(=O)n1CC(=O)NCC(F)(F)F", "MtTrpRS": -0.1487, "Leishmania in macrophages": 13.38}
{"structure": "CCC(=O)NCC(CC)Oc1cccc(F)c1", "stereo": "stereo unspecified", "MtTrpRS": 2.119, "Leishmania in macrophages": 27.83}
{"structure": "COCCN(C)C(=O)c1ccccc1-n1cccn1", "MtTrpRS": 4.686, "Leishmania in macrophages": -1.442}
{"structure": "CN1CC(=O)N(c2cccnc2)CC12CCN(C(=O)c1cccn1C)C2.O=C(O)C(F)(F)F.O=C(O)C(F)(F)F", "stereo": "stereo unspecified", "Leishmania in macrophages": 2.236}
{"structure": "Cc1noc(C)c1CN1CCO[C@H]2CN(Cc3cncn3C)C[C@H]21", "MtTrpRS": -1.256}
{"structure": "COCCNC(=O)c1sc(Nc2ccc(Cl)cn2)nc1C", "MtTrpRS": 0.201, "Leishmania in macrophages": -6.179}
{"structure": "CC(C)NC(=O)c1nnc2ccc(N3CCOCC3)cc2n1", "MtTrpRS": -0.7772, "Leishmania in macrophages": -39.27}
{"structure": "Cc1cnn(CCNCc2nc(COc3ccc(F)cc3)no2)c1", "MtTrpRS": -1.415, "Leishmania in macrophages": 14.58}
{"structure": "CCc1ccc(S(=O)(=O)N2Cc3c(CN(C)C)nn(C)c3C2)cc1.O=C(O)C(F)(F)F", "Leishmania in macrophages": 17.26}
{"structure": "[H][C@]12CC[C@]([H])(C1)N(C(=O)c1cccnc1-c1ccoc1)C2", "Leishmania in macrophages": 10.59}
{"structure": "c1cnc(N2CCC3(CN(CC4CCOC4)C3)C2)nc1", "stereo": "stereo unspecified", "MtTrpRS": -0.08374}
{"structure": "COCCN1CCCC2(CCN(c3ccsc3)C2=O)C1.O=C(O)C(F)(F)F", "stereo": "stereo unspecified", "Leishmania in macrophages": -19.62}
{"structure": "CCc1ccc2nc(C)cc(C(=O)N[C@@H]3CCCNC3)c2c1", "MtTrpRS": -2.056, "Leishmania in macrophages": 31.01}
{"structure": "Cn1cc(C2CCCN2C(=O)c2cnc(-c3cccs3)s2)cn1", "stereo": "stereo unspecified", "MtTrpRS": -3.871, "Leishmania in macrophages": 19.04}
{"structure": "Cn1cc(CCCNC(=O)NCC(O)c2ccsc2)cn1", "stereo": "stereo unspecified", "MtTrpRS": 0.07764, "Leishmania in macrophages": 18.25}
{"structure": "Cc1ncnc(NCC(C)N(C)c2ccccc2)c1C", "stereo": "stereo unspecified", "MtTrpRS": 9.557, "Leishmania in macrophages": 57.28}
{"structure": "O=C(N1CCCC(n2cncn2)C1)C1(c2cccc(F)c2)CC1", "stereo": "stereo unspecified", "MtTrpRS": -7.85, "Leishmania in macrophages": 37.67}
{"structure": "Cc1nc2ccccc2c(=O)n1Cc1nnnn1C1CC1", "MtTrpRS": -5.263, "Leishmania in macrophages": -7.195}
{"structure": "CC(C)N(C)S(=O)(=O)N1CCN(Cc2ccco2)CC1", "MtTrpRS": -5.534, "Leishmania in macrophages": 10.62}
{"structure": "CN(C)c1ncnc2c1CCN(CC1CCCC1)CC2", "MtTrpRS": 2.703}
{"structure": "CO[C@H]1CCN(Cc2ccoc2)C[C@@H]1Cc1ccccc1.O=C(O)C(F)(F)F", "Leishmania in macrophages": 25.61}
{"structure": "[H][C@]12CCN(C(=O)c3ccccc3C)C[C@@]1([H])OCCN(c1ncccn1)C2", "Leishmania in macrophages": 31.64}
{"structure": "CCCc1cc(=O)[nH]c2nnc(SCC(=O)NCCc3ccccc3)n12", "MtTrpRS": 6.255, "Leishmania in macrophages": 10.22}
{"structure": "Cc1noc(C2CCN(C(=O)CCNS(C)(=O)=O)CC2)n1", "MtTrpRS": 9.725, "Leishmania in macrophages": 6.164}
{"structure": "CC(C)n1cc(CN(Cc2ccc(F)cc2)CC2CCCO2)cn1", "stereo": "stereo unspecified", "MtTrpRS": -0.07127, "Leishmania in macrophages": -7.226}
{"structure": "CCS(=O)(=O)Nc1ccc(C(=O)NCCCN2CCCC2)cc1", "MtTrpRS": -2.86, "Leishmania in macrophages": 0.1803}
{"structure": "CCN1CCC2(CC1)CC(COC)N(Cc1csc(C)n1)C2.O=C(O)C(F)(F)F.O=C(O)C(F)(F)F", "stereo": "stereo unspecified", "Leishmania in macrophages": -8.25}
{"structure": "COC1COC2(CCN(Cc3ccccc3Cl)CC2)C1.O=C(O)C(F)(F)F", "stereo": "stereo unspecified", "Leishmania in macrophages": 26.5}

The first 2 entries again:

* CS(=O)(=O)CCn1ccc(NC(=O)Cc2c[nH]c3ccccc23)n1 | MtTrpRS: 8.495%; Leishmania in macrophages: 18.76%
* CN(C)CCNC(=O)c1cc2c(s1)CCN2S(C)(=O)=O | MtTrpRS: -7.713%; Leishmania in macrophages: 16.29%

Measurements from “University of Dundee, Small-Polar-MMV Screening Library” (2021), ChEMBL document CHEMBL3988442.